{"source": "PubChem BioAssay AID743121 (NCATS, 2013)", "assay": "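Knock-downs that sensitise breast cancer cells to camptothecin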 (primary screen)", "system": "MDA-MB-231 cells, a human breast cancer line", "reagents": "single siRNA against human genes, 20 nM siRNA (0.8 pmol per well)", "timing": "120 h (drug added 48 h after transfection, read 72 h later)", "treatment": "camptothecin 20 nM (about EC30) for 72 h; vehicle 0.1% DMSO in parallel plates", "read-out": "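CellTiter-Glo ATP signal, scaled to control siRNA as percent viability; sensitisation given as log2 of untreated divided by camptothecin-treated viability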", "scale": "log2 vehicle/camptothecin viability: higher = stronger sensitisation to camptothecin", "call rule": "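Active genes have an RSA gene-level p-value below 0.001, computed from the ratios of their separate siRNAs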", "note": "Shown is one part, drawn at random, of about 26,000 reagents tested. 167 of all reagents (0.63%) count as active. 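Calls are per gene from RSA p-values that are not deposited; an individual active-marked siRNA can sensitise only weakly.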 Unmarked entries are inactive. Further read-outs or replicates are left out here."}
{"gene knocked down": "PPP1R9A", "PubChem SID": "SID164485422", "log2 vehicle/camptothecin viability": -0.469}
{"gene knocked down": "PPP1R9A", "PubChem SID": "SID164485424", "log2 vehicle/camptothecin viability": 0.0885}
{"gene knocked down": "PPP1R9A", "PubChem SID": "SID164485426", "log2 vehicle/camptothecin viability": 0.126}
{"gene knocked down": "PPP1R9A", "PubChem SID": "SID164485430", "log2 vehicle/camptothecin viability": -0.075}
{"gene knocked down": "SSR4", "PubChem SID": "SID164389908", "log2 vehicle/camptothecin viability": -0.311}
{"gene knocked down": "SSR4", "PubChem SID": "SID164389909", "log2 vehicle/camptothecin viability": 0.0626}
{"gene knocked down": "SSR4", "PubChem SID": "SID164389910", "log2 vehicle/camptothecin viability": -0.293}
{"gene knocked down": "SSR4", "PubChem SID": "SID164389911", "log2 vehicle/camptothecin viability": 0.165}
{"gene knocked down": "SSR4", "PubChem SID": "SID164389912", "log2 vehicle/camptothecin viability": 0.237}
{"gene knocked down": "SSR4", "PubChem SID": "SID164389913", "log2 vehicle/camptothecin viability": -0.268}
{"gene knocked down": "SERPINA9", "PubChem SID": "SID164654770", "log2 vehicle/camptothecin viability": -0.101}
{"gene knocked down": "SERPINA9", "PubChem SID": "SID164654773", "log2 vehicle/camptothecin viability": -0.417}
{"gene knocked down": "SERPINA9", "PubChem SID": "SID164654775", "log2 vehicle/camptothecin viability": -0.386}
{"gene knocked down": "SERPINA9", "PubChem SID": "SID164654777", "log2 vehicle/camptothecin viability": 0.104}
{"gene knocked down": "IKBKB", "PubChem SID": "SID164371151", "log2 vehicle/camptothecin viability": -0.234}
{"gene knocked down": "IKBKB", "PubChem SID": "SID164371154", "log2 vehicle/camptothecin viability": -0.471}
{"gene knocked down": "IKBKB", "PubChem SID": "SID164371158", "log2 vehicle/camptothecin viability": 0.14}
{"gene knocked down": "IKBKB", "PubChem SID": "SID164371161", "log2 vehicle/camptothecin viability": -0.0694}
{"gene knocked down": "APOA2", "PubChem SID": "SID164353695", "log2 vehicle/camptothecin viability": 0.491}
{"gene knocked down": "APOA2", "PubChem SID": "SID164353696", "log2 vehicle/camptothecin viability": -0.541}
{"gene knocked down": "APOA2", "PubChem SID": "SID164353699", "log2 vehicle/camptothecin viability": -0.7}
{"gene knocked down": "APOA2", "PubChem SID": "SID164353702", "log2 vehicle/camptothecin viability": -0.688}
{"gene knocked down": "NCOA2", "PubChem SID": "SID164411496", "log2 vehicle/camptothecin viability": -0.15}
{"gene knocked down": "NCOA2", "PubChem SID": "SID164411497", "log2 vehicle/camptothecin viability": -0.267}
{"gene knocked down": "NCOA2", "PubChem SID": "SID164411498", "log2 vehicle/camptothecin viability": -0.284}
{"gene knocked down": "NCOA2", "PubChem SID": "SID164411499", "log2 vehicle/camptothecin viability": -0.283}
{"gene knocked down": "SNX9", "PubChem SID": "SID164473863", "log2 vehicle/camptothecin viability": -0.218}
{"gene knocked down": "SNX9", "PubChem SID": "SID164473866", "log2 vehicle/camptothecin viability": -0.133}
{"gene knocked down": "SNX9", "PubChem SID": "SID164473867", "log2 vehicle/camptothecin viability": -0.164}
{"gene knocked down": "SNX9", "PubChem SID": "SID164473868", "log2 vehicle/camptothecin viability": -0.0459}
{"gene knocked down": "CDC25A", "PubChem SID": "SID164357540", "log2 vehicle/camptothecin viability": 0.0784}
{"gene knocked down": "CDC25A", "PubChem SID": "SID164357542", "log2 vehicle/camptothecin viability": 0.496}
{"gene knocked down": "CDC25A", "PubChem SID": "SID164357543", "log2 vehicle/camptothecin viability": -0.216}
{"gene knocked down": "CDC25A", "PubChem SID": "SID164357548", "log2 vehicle/camptothecin viability": -0.148}
{"gene knocked down": "TLR6", "PubChem SID": "SID164410382", "log2 vehicle/camptothecin viability": -0.0618}
{"gene knocked down": "TLR6", "PubChem SID": "SID164410385", "log2 vehicle/camptothecin viability": -0.341}
{"gene knocked down": "TLR6", "PubChem SID": "SID164410390", "log2 vehicle/camptothecin viability": 0.0407}
{"gene knocked down": "NTF3", "PubChem SID": "SID164378548", "log2 vehicle/camptothecin viability": -0.0218}
{"gene knocked down": "NTF3", "PubChem SID": "SID164378549", "log2 vehicle/camptothecin viability": -0.425}
{"gene knocked down": "NTF3", "PubChem SID": "SID164378550", "log2 vehicle/camptothecin viability": -0.238}
{"gene knocked down": "NTF3", "PubChem SID": "SID164378552", "log2 vehicle/camptothecin viability": -0.199}
{"gene knocked down": "PRSS38", "PubChem SID": "SID164657725", "log2 vehicle/camptothecin viability": -0.236}
{"gene knocked down": "PRSS38", "PubChem SID": "SID164657726", "log2 vehicle/camptothecin viability": 0.502}
{"gene knocked down": "PRSS38", "PubChem SID": "SID164657728", "log2 vehicle/camptothecin viability": -0.151}
{"gene knocked down": "PRSS38", "PubChem SID": "SID164657729", "log2 vehicle/camptothecin viability": -0.13}

Sorted by “log2 vehicle/camptothecin viability” (highest first): 5 of the entries above
{"gene knocked down": "CDC25A", "PubChem SID": "SID164357542", "log2 vehicle/camptothecin viability": 0.496}
{"gene knocked down": "CDC25A", "PubChem SID": "SID164357540", "log2 vehicle/camptothecin viability": 0.0784}
{"gene knocked down": "SNX9", "PubChem SID": "SID164473868", "log2 vehicle/camptothecin viability": -0.0459}
{"gene knocked down": "SNX9", "PubChem SID": "SID164473866", "log2 vehicle/camptothecin viability": -0.133}
{"gene knocked down": "SNX9", "PubChem SID": "SID164473867", "log2 vehicle/camptothecin viability": -0.164}
